Assay results taken from PMC11626157.
Results are given in words; binding and its absence hold for the method and conditions named. Some results given as binding are weak or reduced against the parent protein; the word gives no strength.

By UniProt entry, the sequences of proteins in these tests, tags left out.
UniProt P0AES4: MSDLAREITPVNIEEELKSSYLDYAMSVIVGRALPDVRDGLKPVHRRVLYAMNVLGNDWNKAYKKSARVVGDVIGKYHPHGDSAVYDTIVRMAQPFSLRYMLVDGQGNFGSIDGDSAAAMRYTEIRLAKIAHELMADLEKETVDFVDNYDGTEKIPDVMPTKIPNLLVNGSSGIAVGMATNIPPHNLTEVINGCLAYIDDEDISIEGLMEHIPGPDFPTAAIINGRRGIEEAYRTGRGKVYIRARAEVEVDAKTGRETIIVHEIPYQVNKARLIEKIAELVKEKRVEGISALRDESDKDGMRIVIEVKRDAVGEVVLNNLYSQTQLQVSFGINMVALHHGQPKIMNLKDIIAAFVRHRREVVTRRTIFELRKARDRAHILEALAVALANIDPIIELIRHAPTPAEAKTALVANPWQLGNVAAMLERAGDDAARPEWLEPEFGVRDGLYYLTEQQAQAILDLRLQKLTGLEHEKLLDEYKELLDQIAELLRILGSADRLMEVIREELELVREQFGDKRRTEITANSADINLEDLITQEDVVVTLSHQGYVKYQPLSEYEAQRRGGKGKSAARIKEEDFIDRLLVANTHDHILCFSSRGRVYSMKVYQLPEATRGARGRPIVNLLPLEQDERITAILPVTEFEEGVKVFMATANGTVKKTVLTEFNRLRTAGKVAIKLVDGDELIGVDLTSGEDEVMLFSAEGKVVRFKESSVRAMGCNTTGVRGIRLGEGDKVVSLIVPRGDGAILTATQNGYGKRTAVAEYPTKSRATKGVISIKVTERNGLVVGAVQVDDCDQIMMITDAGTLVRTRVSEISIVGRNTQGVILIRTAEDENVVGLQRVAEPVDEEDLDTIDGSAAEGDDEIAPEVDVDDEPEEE

Assays:
[1] = target: Escherichia coli DNA gyrase subunit A (GyrA) (Escherichia coli) (UniProt P0AES4); experiment: cryo-EM structure; Gyr-Mu217-MFX: as Gyr-Mu217 but with moxifloxacin (50 µM in the dialysis buffer, then 100 µM, 37 °C for 15 min); DNA cleaved; both purified
[2] = target: Escherichia coli DNA gyrase subunit A (GyrA) (Escherichia coli) (UniProt P0AES4); experiment: cryo-EM structure; Gyr-Mu217: GyrA and GyrB with equimolar 217 bp Mu217 DNA, no nucleotide, no drug; dialysed at 4 °C into 25 mM Na-HEPES pH 8, 30 mM potassium acetate, 2.5 mM magnesium acetate, 0.5 mM TCEP; 8 mM CHAPSO added before freezing; both purified

Escherichia coli DNA gyrase subunit A (GyrA) (from UniProt P0AES4 1-875) (enzyme; other documents disagree on this pair)
binding [1]: binds
binding [2]: binds
